Results are given in words; binding and its absence hold for the method and conditions named. For some assays here: In cells and extracts the contact can be indirect. Some results given as binding are weak or reduced against the parent protein; the word gives no strength.
Molecular target: FXR1 (Fragile X-related Protein 1), endogenous (human (endogenous in H358 and KATOIII)) (UniProt P51114)
Test: co-IP; ChIP-WB: formaldehyde cross-linked, micrococcal nuclease digested single-nucleosome lysate of H358 cells; anti-FXR1 antibody, Protein G magnetic beads; eluted proteins analysed by WB

By UniProt entry, the sequences of proteins in these tests, tags left out.
UniProt P51114: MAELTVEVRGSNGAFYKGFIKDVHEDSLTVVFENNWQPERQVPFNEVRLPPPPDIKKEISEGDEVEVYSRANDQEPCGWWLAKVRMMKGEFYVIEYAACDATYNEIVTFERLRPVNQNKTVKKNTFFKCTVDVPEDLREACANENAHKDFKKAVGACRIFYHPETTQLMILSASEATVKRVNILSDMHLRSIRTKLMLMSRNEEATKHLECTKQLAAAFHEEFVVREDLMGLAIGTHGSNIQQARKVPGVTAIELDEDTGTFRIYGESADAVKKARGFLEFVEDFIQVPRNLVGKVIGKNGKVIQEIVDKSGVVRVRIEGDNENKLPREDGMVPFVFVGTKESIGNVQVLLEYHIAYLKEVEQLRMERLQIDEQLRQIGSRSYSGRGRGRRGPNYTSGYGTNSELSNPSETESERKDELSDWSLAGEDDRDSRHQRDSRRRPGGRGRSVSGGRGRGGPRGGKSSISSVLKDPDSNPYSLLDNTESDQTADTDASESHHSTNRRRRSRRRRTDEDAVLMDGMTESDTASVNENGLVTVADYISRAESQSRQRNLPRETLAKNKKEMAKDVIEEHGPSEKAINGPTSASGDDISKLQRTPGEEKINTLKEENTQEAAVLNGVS
UniProt O60264: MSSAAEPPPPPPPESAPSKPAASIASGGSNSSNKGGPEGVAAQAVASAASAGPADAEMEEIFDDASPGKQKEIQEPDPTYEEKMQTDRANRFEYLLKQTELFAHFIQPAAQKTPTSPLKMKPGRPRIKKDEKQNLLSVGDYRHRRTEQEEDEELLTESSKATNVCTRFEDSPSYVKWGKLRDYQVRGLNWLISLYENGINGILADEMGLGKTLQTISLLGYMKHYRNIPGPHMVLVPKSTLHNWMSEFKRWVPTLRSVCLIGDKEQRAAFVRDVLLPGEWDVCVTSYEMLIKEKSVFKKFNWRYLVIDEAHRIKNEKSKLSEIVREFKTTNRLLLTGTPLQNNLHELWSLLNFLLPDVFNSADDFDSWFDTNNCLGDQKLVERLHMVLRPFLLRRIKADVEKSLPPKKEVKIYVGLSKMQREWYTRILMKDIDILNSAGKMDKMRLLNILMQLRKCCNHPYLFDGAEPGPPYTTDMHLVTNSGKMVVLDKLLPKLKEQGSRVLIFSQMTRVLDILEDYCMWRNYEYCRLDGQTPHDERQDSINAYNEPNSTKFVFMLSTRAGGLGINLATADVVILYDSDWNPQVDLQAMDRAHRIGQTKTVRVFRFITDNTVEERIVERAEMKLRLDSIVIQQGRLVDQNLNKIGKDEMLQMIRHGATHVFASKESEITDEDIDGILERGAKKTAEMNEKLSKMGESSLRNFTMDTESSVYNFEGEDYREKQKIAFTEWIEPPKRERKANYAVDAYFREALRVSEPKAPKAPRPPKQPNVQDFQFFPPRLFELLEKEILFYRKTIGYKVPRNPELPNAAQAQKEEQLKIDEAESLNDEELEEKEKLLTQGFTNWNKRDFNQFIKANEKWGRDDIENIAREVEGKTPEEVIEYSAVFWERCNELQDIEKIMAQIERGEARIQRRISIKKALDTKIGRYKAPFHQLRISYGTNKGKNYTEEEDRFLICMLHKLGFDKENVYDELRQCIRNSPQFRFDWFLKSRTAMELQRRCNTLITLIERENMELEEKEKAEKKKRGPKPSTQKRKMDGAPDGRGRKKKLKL
UniProt P42224: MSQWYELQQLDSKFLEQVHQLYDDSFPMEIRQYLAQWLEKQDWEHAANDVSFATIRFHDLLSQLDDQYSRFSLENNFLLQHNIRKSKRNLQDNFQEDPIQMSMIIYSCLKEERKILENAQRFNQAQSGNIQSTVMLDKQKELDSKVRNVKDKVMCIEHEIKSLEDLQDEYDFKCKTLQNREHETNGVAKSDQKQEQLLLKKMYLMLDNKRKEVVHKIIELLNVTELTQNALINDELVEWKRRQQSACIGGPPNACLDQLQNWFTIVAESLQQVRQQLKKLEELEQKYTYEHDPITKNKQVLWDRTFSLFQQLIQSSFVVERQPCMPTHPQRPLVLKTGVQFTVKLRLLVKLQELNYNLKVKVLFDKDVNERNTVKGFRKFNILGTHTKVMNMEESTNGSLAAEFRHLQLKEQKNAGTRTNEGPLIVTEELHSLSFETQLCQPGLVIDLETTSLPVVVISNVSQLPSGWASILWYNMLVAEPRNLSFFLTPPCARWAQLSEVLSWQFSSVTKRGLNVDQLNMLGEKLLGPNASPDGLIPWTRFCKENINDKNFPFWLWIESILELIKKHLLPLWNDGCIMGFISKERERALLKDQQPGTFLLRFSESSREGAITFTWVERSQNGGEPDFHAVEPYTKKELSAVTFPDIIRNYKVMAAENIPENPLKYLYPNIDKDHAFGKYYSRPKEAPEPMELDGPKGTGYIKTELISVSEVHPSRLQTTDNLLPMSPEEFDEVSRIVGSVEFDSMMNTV
UniProt Q14839: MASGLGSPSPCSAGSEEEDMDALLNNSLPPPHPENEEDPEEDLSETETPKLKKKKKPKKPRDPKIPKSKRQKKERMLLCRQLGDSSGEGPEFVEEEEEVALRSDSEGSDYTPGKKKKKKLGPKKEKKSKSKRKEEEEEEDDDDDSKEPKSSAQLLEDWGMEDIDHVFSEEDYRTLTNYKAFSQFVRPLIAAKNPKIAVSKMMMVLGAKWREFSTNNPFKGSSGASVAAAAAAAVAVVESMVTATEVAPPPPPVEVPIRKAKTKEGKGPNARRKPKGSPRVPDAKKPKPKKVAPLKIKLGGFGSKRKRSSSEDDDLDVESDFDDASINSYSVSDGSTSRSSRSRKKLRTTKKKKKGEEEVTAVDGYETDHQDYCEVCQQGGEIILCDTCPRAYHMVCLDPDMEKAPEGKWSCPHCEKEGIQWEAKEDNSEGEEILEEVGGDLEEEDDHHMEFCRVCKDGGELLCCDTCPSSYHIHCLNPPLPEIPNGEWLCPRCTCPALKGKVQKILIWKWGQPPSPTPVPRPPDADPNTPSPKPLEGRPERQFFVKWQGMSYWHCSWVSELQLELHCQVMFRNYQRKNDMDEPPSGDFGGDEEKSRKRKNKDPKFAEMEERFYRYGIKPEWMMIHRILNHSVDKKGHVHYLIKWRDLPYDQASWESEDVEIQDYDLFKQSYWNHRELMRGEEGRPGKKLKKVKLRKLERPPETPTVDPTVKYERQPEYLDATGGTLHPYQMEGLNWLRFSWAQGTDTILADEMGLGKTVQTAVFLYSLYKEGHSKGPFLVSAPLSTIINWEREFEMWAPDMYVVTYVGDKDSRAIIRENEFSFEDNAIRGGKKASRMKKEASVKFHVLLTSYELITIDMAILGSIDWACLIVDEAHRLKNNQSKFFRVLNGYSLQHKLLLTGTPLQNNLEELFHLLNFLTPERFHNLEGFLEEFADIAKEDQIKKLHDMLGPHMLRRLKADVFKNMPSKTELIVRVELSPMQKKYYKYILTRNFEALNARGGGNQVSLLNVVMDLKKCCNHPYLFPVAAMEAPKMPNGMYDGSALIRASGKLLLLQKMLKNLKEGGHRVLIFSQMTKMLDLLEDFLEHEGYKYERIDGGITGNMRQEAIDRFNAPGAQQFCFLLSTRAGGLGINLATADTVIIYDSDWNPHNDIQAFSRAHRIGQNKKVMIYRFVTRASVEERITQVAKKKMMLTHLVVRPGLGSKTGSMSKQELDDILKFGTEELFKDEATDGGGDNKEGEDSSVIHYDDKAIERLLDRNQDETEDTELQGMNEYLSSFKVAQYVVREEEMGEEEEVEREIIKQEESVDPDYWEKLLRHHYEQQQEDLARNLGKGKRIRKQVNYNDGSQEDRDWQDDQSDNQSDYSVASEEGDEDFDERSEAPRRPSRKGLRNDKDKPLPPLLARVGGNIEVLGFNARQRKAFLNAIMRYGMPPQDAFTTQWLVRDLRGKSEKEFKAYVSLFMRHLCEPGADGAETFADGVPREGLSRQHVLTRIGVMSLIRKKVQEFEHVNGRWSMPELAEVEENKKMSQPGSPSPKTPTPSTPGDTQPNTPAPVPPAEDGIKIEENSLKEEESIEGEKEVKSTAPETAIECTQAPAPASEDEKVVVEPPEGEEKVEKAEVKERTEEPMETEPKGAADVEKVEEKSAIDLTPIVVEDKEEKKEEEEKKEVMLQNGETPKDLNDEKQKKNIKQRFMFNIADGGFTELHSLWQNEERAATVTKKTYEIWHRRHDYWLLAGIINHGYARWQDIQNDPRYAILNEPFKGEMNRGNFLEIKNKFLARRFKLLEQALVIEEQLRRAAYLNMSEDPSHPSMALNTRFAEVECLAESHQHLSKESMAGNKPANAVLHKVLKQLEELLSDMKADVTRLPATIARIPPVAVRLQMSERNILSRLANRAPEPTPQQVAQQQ
UniProt P40763: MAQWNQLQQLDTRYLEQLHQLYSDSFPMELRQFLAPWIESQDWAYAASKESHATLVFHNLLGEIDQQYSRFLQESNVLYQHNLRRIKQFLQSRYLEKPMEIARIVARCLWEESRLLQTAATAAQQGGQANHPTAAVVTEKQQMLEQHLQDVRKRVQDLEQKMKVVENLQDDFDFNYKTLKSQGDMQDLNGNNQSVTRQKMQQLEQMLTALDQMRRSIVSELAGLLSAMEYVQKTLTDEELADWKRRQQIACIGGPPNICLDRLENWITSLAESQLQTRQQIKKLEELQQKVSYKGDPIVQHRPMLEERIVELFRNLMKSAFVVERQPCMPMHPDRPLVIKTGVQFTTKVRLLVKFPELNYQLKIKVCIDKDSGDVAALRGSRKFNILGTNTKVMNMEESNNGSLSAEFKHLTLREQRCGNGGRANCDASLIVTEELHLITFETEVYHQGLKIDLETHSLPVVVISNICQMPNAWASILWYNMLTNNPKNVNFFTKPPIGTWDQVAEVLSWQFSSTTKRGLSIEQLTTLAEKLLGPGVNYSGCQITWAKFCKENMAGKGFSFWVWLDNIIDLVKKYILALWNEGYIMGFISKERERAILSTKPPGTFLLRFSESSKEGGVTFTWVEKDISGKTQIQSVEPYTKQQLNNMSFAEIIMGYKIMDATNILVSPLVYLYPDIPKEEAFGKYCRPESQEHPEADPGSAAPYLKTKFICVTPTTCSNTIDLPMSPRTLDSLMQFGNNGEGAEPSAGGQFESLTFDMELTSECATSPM

binding, binds:
SNF2H (from UniProt O60264 1-1052)
STAT1, endogenous (from UniProt P42224 1-750)
CHD4 (from UniProt Q14839 1-1912)
phosphorylated STAT1, endogenous (from UniProt P42224 1-750)
phosphorylated STAT3, endogenous (from UniProt P40763 1-770)
STAT3, endogenous (from UniProt P40763 1-770)

Molecular target: Flag-tagged-FXR1 (full-length isoform a) (UniProt P51114)
Test: pull-down; 25 µl purified Flag-tagged-FXR1 with 75 µl purified HA-tagged-STAT1 or -STAT3 in binding buffer (50 mM Tris pH 7.5, 150 mM NaCl, 0.1% NP-40, 1 mM DTT), 4°C overnight; Flag or HA magnetic beads; wash with 300 mM NaCl; WB; both purified

binding, binds:
HA-tagged-STAT1 (from UniProt P42224 1-750)
HA-tagged-STAT3 (from UniProt P40763 1-770)
